From publication PMC5302413, “Bifunctional peptide-based opioid agonist/nociceptin antagonist ligand for dual treatment of nociceptive and neuropathic pain” (Pain, 2016)
Where a name gives a salt, the structure may show the parent alone.

Test system: Sprague-Dawley rats
Assay: Whole-body plethysmography, respiratory effects in rats
Settings: IV, sigmoidal Emax model, mean (CV%)

Structure (SMILES): Cc1cc(O)cc(C)c1C[C@H](N)C(=O)N[C@H](CCCNC(=N)N)C(=O)NC1Cc2ccccc2CN(CCC(N)=O)C1=O (stereo partly drawn) [KGOP1, H-Dmt-D-Arg-Aba-βAla-NH2]
- Inspiratory time γ (Hill coefficient): 2.4 (32.7)

Structure (SMILES): CN1CC[C@]23c4c5ccc(O)c4O[C@H]2[C@@H](O)C=C[C@H]3[C@H]1C5 [Morphine, Morphine sulfate, reference compound]
- Inspiratory time γ (Hill coefficient): 4.4 (16.7)

Structure (SMILES): COc1cccc(C2(O)CCCCC2CN(C)C)c1 (stereo not drawn) [Tramadol, Tramadol hydrochloride, reference compound]
- Inspiratory time γ (Hill coefficient): 2 (27.5)
